The text below walks through data of PMC6514849.

The chains behind the UniProt entries cited, without tags or fusion partners. Where a name states a change or a piece, a line headed by the entry shows the natural chain unless it says otherwise.
UniProt P10275: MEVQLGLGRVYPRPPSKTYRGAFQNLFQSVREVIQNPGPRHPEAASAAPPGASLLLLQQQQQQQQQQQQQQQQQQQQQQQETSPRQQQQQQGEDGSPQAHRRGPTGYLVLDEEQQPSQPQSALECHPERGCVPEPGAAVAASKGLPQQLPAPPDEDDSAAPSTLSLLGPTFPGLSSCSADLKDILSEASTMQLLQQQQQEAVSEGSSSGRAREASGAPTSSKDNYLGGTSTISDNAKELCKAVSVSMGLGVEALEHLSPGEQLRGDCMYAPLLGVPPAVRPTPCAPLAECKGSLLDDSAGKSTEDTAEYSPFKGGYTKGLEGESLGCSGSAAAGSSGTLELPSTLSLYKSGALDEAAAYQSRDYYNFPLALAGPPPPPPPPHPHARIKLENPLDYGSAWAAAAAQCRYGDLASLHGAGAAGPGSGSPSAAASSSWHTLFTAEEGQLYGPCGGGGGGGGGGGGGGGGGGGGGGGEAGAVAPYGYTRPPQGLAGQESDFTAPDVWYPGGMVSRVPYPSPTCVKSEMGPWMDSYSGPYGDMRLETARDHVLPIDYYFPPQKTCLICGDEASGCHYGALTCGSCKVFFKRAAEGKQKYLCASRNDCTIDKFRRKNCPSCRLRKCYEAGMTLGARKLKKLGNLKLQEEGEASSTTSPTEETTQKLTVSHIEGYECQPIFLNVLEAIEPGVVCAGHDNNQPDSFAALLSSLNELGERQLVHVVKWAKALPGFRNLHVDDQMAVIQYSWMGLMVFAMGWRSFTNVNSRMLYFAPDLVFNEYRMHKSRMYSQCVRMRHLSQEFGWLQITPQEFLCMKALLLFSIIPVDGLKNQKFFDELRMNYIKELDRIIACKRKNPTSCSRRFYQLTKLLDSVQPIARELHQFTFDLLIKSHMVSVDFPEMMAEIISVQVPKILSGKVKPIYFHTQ

This assay concerns the target GST-tagged AR amino terminal domain (AR^NTD) (human) (UniProt P10275). The assay can be described thus: pull-down; GST pull-down: GST-tagged AR domains incubated with recombinant PBK (50 pmoles) for 2 h; PBK detected by immunoblotting with an anti-PBK antibody; AR-DBD-LBD expressed, purified and incubated ± 50 μM DHT (n = 2–5); both purified. (A western blot detects proteins with antibodies after separation by electrophoresis.)

No constants are given. Whether binding was seen depends on the method and setting. Binding calls can cover weak binding; strength is not graded here.

B1: recombinant PBK (enzyme, UniProt Q96KB5 1-322)
chain: MEGISNFKTPSKLSEKKKSVLCSTPTINIPASPFMQKLGFGTGVNVYLMKRSPRGLSHSPWAVKKINPICNDHYRSVYQKRLMDEAKILKSLHHPNIVGYRAFTEANDGSLCLAMEYGGEKSLNDLIEERYKASQDPFPAAIILKVALNMARGLKYLHQEKKLLHGDIKSSNVVIKGDFETIKICDVGVSLPLDENMTVTDPEACYIGTEPWKPKEAVEENGVITDKADIFAFGLTLWEMMTLSIPHINLSNDDDDEDKTFDESDFDDEAYYAALGTRPPINMEELDESYQKVIELFSVCTNEDPKDRPSAAHIVEALETDV
On to B1, for which the binding result is reported as “binds”.
